Data taken from the supplement of paper PMC6078165.
Values are relative to the signal before dosing, not to a vehicle control; the signal also falls without drug.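 Fibroblast labels denote human fibroblasts, mainly primary ones from uterus (C12385, HUF), lung (H6013), bone (Hs27A), adrenal (HADF) and skin (WS1), plus mammary HMF and breast cancer-associated Hs343T. Cancer cells are basal-like or mesenchymal-like triple-negative breast cancer lines. A hit is a response shift exceeding 3x replicate standard deviation. The tissue of the other fibroblasts is not given here.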 Numbered stars: 1 amine (or outer) side, 2 acyl side, 3 side chain; on linkers, the order of the positions; unused ones are H or OH. Bridge positions count the residues as written; N and C are the ends. Square brackets hold non-standard residues; d marks the D form. Peptide text beside a SMILES is read from it. I, II: the chains in the order shown. Actinocin(9to1) = Cc1c2oc3c(C)ccc(C(=O)[*:1])c3nc-2c(C(=O)[*:2])c(N)c1=O; NMeV = CN[C@H](C(=O)O)C(C)C; Sar = CNCC(=O)O

System: MDAMB468
Assay: relative JC-1 red fluorescence (viability) vs pre-drug, coculture with fibroblast (fraction); higher = more viable cancer cells
Method: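 JC-1 labelled TNBC cells cocultured 1:1 (1,500 cells each) with CellTrace Violet stained primary or stromal fibroblasts in 384-well plates in FluoroBrite medium, treated with one of 42 anticancer drugs at 0.1, 1, 10 or 100 uM. JC-1 red fluorescence (mitochondrial integrity in cancer cells only) was read by plate reader every 8 h for 72 h. Values are normalised to each well's pre-drug value. The stock of one drug was tenfold lower, so its dose labels may be too high.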

Cc1c2oc3c(C)ccc(C(=O)N[C@@H]4C(=O)N[C@H](C(C)C)C(=O)N5CCC[C@H]5C(=O)N(C)CC(=O)N(C)[C@@H](C(C)C)C(=O)O[C@@H]4C)c3nc-2c(C(=O)N[C@@H]2C(=O)N[C@H](C(C)C)C(=O)N3CCC[C@H]3C(=O)N(C)CC(=O)N(C)[C@@H](C(C)C)C(=O)O[C@@H]2C)c(N)c1=O [Dactinomycin] (I: T[dV]P[Sar][NMeV] / II: T[dV]P[Sar][NMeV]; ester I:1-I:C, II:1-II:C; linker I:N-II:N via Actinocin(9to1))
relative JC-1 red fluorescence
Settings | 8 h | 16 h | 24 h | 32 h | 40 h | 48 h | 56 h | 64 h | 72 h
10 µM, coculture fibroblast: C12385 | 0.722 | 0.577 | 0.515 | 0.451 | 0.4091 | 0.4097 | 0.383 | 0.383 | 0.38
10 µM, coculture fibroblast: H6013 | 0.8005 | 0.735 | 0.6709 | 0.605 | 0.576 | 0.567 | 0.524 | 0.512 | 0.451
10 µM, coculture fibroblast: H6019 | 0.76 | 0.716 | 0.701 | 0.677 | 0.66 | 0.675 | 0.638 | 0.627 | 0.637
10 µM, coculture fibroblast: H6076 | 0.867 | 0.805 | 0.688 | 0.66 | 0.556 | 0.537 | 0.503 | 0.483 | 0.508
10 µM, coculture fibroblast: H6231 | 0.7715 | 0.793 | 0.676 | 0.655 | 0.538 | 0.507 | 0.463 | 0.445 | 0.457
10 µM, coculture fibroblast: HADF | 0.797 | 0.72 | 0.661 | 0.644 | 0.618 | 0.603 | 0.564 | 0.551 | 0.48
10 µM, coculture fibroblast: HCFa | 0.788 | 0.70077 | 0.642 | 0.6 | 0.569 | 0.574 | 0.547 | 0.532 | 0.476
10 µM, coculture fibroblast: HCPF | 0.832 | 0.851 | 0.75 | 0.74 | 0.628 | 0.581 | 0.522 | 0.508 | 0.513
10 µM, coculture fibroblast: HHSteC | 0.823 | 0.757 | 0.708 | 0.665 | 0.657 | 0.664 | 0.605 | 0.585 | 0.519
10 µM, coculture fibroblast: HMF | 0.801 | 0.817 | 0.688 | 0.657 | 0.553 | 0.518 | 0.476 | 0.457 | 0.457
10 µM, coculture fibroblast: HPFa | 0.79 | 0.693 | 0.652 | 0.588 | 0.585 | 0.589 | 0.55 | 0.554 | 0.49
10 µM, coculture fibroblast: HUF | 0.772 | 0.667 | 0.596 | 0.521 | 0.48 | 0.476 | 0.436 | 0.435 | 0.432
10 µM, coculture fibroblast: Hs5 | 0.932 | 0.802 | 0.705 | 0.666 | 0.578 | 0.54 | 0.526 | 0.498 | 0.53
10 µM, coculture fibroblast: Hs27A | 0.751 | 0.71 | 0.619 | 0.58 | 0.56 | 0.555 | 0.516 | 0.502 | 0.442
10 µM, coculture fibroblast: Hs343T | 0.844 | 0.839 | 0.71 | 0.67 | 0.556 | 0.517 | 0.477 | 0.464 | 0.464
10 µM, coculture fibroblast: WS1 | 0.726 | 0.57 | 0.505 | 0.441 | 0.396 | 0.38 | 0.357 | 0.348 | 0.351
100 µM, coculture fibroblast: C12385 | 0.705 | 0.692 | 0.677 | 0.63 | 0.592 | 0.588 | 0.547 | 0.5361 | 0.538
100 µM, coculture fibroblast: H6013 | 0.74 | 0.6768 | 0.62 | 0.568 | 0.542 | 0.535 | 0.4806 | 0.462 | 0.397
100 µM, coculture fibroblast: H6019 | 0.6833 | 0.608 | 0.577 | 0.519 | 0.482 | 0.476 | 0.438 | 0.425 | 0.4
100 µM, coculture fibroblast: H6076 | 0.828 | 0.729 | 0.645 | 0.627 | 0.549 | 0.524 | 0.49 | 0.466 | 0.501
100 µM, coculture fibroblast: H6231 | 0.715 | 0.689 | 0.605 | 0.635 | 0.548 | 0.514 | 0.467 | 0.437 | 0.452
100 µM, coculture fibroblast: HADF | 0.74 | 0.699 | 0.656 | 0.63 | 0.588 | 0.571 | 0.531 | 0.5064 | 0.446
100 µM, coculture fibroblast: HCFa | 0.7155 | 0.6768 | 0.638 | 0.622 | 0.5776 | 0.578 | 0.536 | 0.511 | 0.457
100 µM, coculture fibroblast: HCPF | 0.761 | 0.75 | 0.6739 | 0.7 | 0.618 | 0.593 | 0.561 | 0.541 | 0.541
100 µM, coculture fibroblast: HHSteC | 0.7613 | 0.647 | 0.59 | 0.531 | 0.494 | 0.493 | 0.425 | 0.4 | 0.345
100 µM, coculture fibroblast: HMF | 0.769 | 0.756 | 0.682 | 0.662 | 0.566 | 0.547 | 0.51 | 0.493 | 0.493
100 µM, coculture fibroblast: HPFa | 0.759 | 0.693 | 0.648 | 0.573 | 0.576 | 0.582 | 0.542 | 0.535 | 0.47
100 µM, coculture fibroblast: HUF | 0.7792 | 0.734 | 0.7 | 0.6409 | 0.596 | 0.585 | 0.546 | 0.5447 | 0.5308
100 µM, coculture fibroblast: Hs5 | 0.8587 | 0.72949 | 0.715 | 0.7102 | 0.635 | 0.616 | 0.597 | 0.57 | 0.61
100 µM, coculture fibroblast: Hs27A | 0.7025 | 0.663 | 0.596 | 0.569 | 0.526 | 0.522 | 0.48 | 0.464 | 0.402
100 µM, coculture fibroblast: Hs343T | 0.779 | 0.762 | 0.736 | 0.751 | 0.658 | 0.64 | 0.6 | 0.586 | 0.582
100 µM, coculture fibroblast: WS1 | 0.7326 | 0.665 | 0.614 | 0.557 | 0.501 | 0.48 | 0.456 | 0.441 | 0.437
